Reference: patent US5232924A, “Heterocyclic compound having serotonine 2-receptor antagonistic activity” (Daiichi Pharmaceutical Co., Ltd., priority 1989, dated 1993)

Test system: Mongrel dogs
Assay: Acute cardiac infarction model: LDA ligature and reperfusion in dogs
Assay type: in vivo
Details: dog
Method: Mongrel dogs (body weight: 8 to 20 kg) under anesthesia were ventilated artificially and underwent a left thracotomy. […] A polyethylene cannula was inserted into the femoral artery, and the blood pressure and heart rate were recorded A cannula was inserted into the […] of a drug and also into the carotid artery from which a blood sample was to be taken. After stabilization period of the test preparation, LDA was ligated with a clamp. After 2 hours from the ligature, the clamp was released for reperfusion. After observation for the following 4 hours, the heart was excised. […] Then, the heart was washed and sliced at 1 cm intervals from the apex in the direction vertical to the longer axis. Each slice at the left ventricle was divided into a part which was in risk of cardiac infarction indicated by Evans' Blue stain (hereinafter referred to as risk area) and a normal area, and each area was weighed. The weight of the left ventricle (the sum of the risk area and the normal area) and that of the risk area of each slice were individually added up to obtain the weight of the whole left ventricle and the total weight of the risk area. Further, of each slice, the area of the risk area which was not stained with Evans' Blue and that of a cardiac infarction area within the risk area which remained white, i.e., which was stained neither in blue with Evans' Blue nor in red with triphenyltetrazolium chloride, were measured to obtain a ratio of cardiac infarction part to the whole left ventricle (infarction size). […] The experiment was conducted for the following groups.

Row | Compound | Left Ventricle Weight (1 mg/kg/hr intravenous drip, mean ± S.E.M., control 68 ± 5) [g] | Blood Pressure (1 mg/kg/hr intravenous drip, mean ± S.E.M., control 118 ± 4) [mmHg] | Heart Rate (1 mg/kg/hr intravenous drip, mean ± S.E.M., control 158 ± 8) [beats/min] | Dangerous part Weight (risk area, 1 mg/kg/hr intravenous drip, mean ± S.E.M., control 21 ± 3) [g] | influence on blood pressure (in words) (hydrochloride 1 mg/kg/hr intravenous drip)
1 | Cl.O=C(c1ccc(F)cc1)C1CCN(CCn2c(=O)nc3n(c2=O)CCCC3)CC1 [Example 2, 3-[2-[4-(4-Fluorobenzoyl)piperidin-1-yl]ethyl]-6,7,8,9-tetrahydro-2H-pyrido[1,2-a]-1,3,5-triazine-2,4(3H)-dione Hydrochloride] | 65 ± 5 | 103 ± 4 | 150 ± 9 | 19 ± 2 | 
2 | O=C(c1ccc(F)cc1)C1CCN(CCn2c(=O)nc3n(c2=O)CCCC3)CC1 [Example 1, 3-[2-[4-(4-Fluorobenzoyl)piperidin-1-yl]ethyl]-6,7,8,9-tetrahydro-2H-pyrido[1,2-a]-1,3,5-triazine-2,4(3H)-dione] |  |  |  |  | only a slight influence
